The text below walks through data of PMC7669825, “Escherichia coli RelA Regulation via Its C-Terminal Domain” (Frontiers in Microbiology, 2020).

The assay concerns the target YG4-C638F (mutated YG4, His-tagged) (Escherichia coli) (UniProt P0AG20). In words: cross-linking; 10 ul with 12.5 mM Na phosphate pH 7.2, 12.5 mM NaCl, 2.5% glycerol, 1 x 10^-3% glutaraldehyde, 4 ug of protein; 15 min on ice; SDS-PAGE and Western blot with anti-His antibody; both purified. A general note: A western blot detects proteins with antibodies after separation by electrophoresis.

No constants are given. Whether binding was seen depends on the method and setting. Some entries that bind do so weakly or less than the wild type. Tags and fused reporters may be left off the sequences shown.

B1: YG4-C638F (mutated YG4, His-tagged) (domain or fragment, UniProt P0AG20 564-744)
chain: FNKPSAEEQDAAALKQLQQKSYTPQNRSKDNGRVVVEGVGNLMHHIARCCQPIPGDEIVGFITQGRGISVHRADFEQLAELRSHAPERIVDAVWGESYSAGYSLVVRVVANDRSGLLRDITTILANEKVNVLGVASRSDTKQQLATIDMTIEIYNLQVLGRVLGKLNQVPDVIDARRLHGS
For B1, the binding result is on record as “binds weakly”.
